The test system of the assay is Klebsiella pneumoniae ST258. In kind it is cell-based. The following applies: dose-response in Muller-Hinton broth, Figure 3D. Here is the method: It was determined using the broth microdilution assay in accordance with the procedures from the Clinical and Laboratory Standards Institute. For broth microdilution assays, pathogenic bacteria, such as Escherichia coli ATCC 25922, Staphylococcus aureus ATCC 25923, Pseudomonas aeruginosa ATCC 27853 and Klebsiella pneumoniae ST258, were cultured in Mueller-Hinton broth (MHB) at 37 °C until an end point between of 0.08 and 0.13 units of absorbance at 625 nm and diluted 1:100 in MHB (ca. 1 × 10^8 CFU/mL). […]
E. coli, S. aureus, P. aeruginosa and K. pneumoniae were grown in the presence of each of the four AMPs, and in the presence of each of the eight commercial antibiotics, which were Levofloxacin, Trimethoprim, Sulfamethoxazole, Azithromycin, Amoxicillin, Ceftriaxone, Gentamicin and Vancomycin, and in combinations of AMPs and the antibiotics. That is, the antimicrobial capacity of each AMP (50, 25, 12.5 and 6.2 µg/ mL) in combination with each antibiotic agent (50, 25, 12.5, 3.2, 1.6 and 0 µg/ mL) was measured as described above. For evaluation of the effect of the mixtures, the fractional inhibitory concentration (FIC) was calculated for each antibiotic in each combination. […]

Molecules are shown by their SMILES.

`Cc1cc(NS(=O)(=O)c2ccc(N)cc2)no1` [Sulfamethoxazole]: the “Antibiotic concentration in whose presence K. pneumoniae could grow (up to)” value is listed as “up to 50 µg/mL”.

These data come from PMC6273820, “Antimicrobial Activity and Stability of Short and Long Based Arachnid Synthetic Peptides in the Presence of Commercial Antibiotics” (Molecules, 2016).
